# Laboratory results: the supplement of paper PMC10338343
# ± gives the standard deviation. The entries are a selection whose mix differs from that of the whole data set. Many entries were measured with a wide error.
# Test system: EfPiwi piRISC loaded with piRNA #1 (26 nt)
# Assay: pre-steady-state target cleavage rate (min^-1); guide: piRNA #1 5'p-UGAGGUAGUAGGUUGUAUAGUAUCCA; MIWI and MILI are mouse PIWI proteins and EfPiwi is from a freshwater sponge; tags in brackets are library labels; higher = faster piRNA-guided slicing of the target
# Conditions: auxiliary factor: 500 nM Ephydatia muelleri Gtsf1
# Method in brief: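 The pre-steady-state cleavage rate was obtained by Cleave-'n-Seq with a burst-and-steady-state fit. A transcribed, DNA-blocked target RNA library (0.1 nM) was mixed with 1 nM active affinity-purified piRISC carrying one synthetic guide, with or without 500 nM GTSF1 partner protein, in HEPES–potassium acetate buffer at 33 °C for 0–8 or 0–960 min. Uncleaved targets were sequenced and normalised to depth and to weakly complementary targets, with three trials pooled and k3 capped at 0.0001 min^-1.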
row,Sequence,pre-steady-state target cleavage rate
1,GGAGAGGAUUCUUUACAACCUACUACCUCA,0.0017 ± 0.0068
2,GGAGACCAUACUAUAGAACCUACUUCCUCA,0.00272 ± 0.0029
3,GGAGACCAUACUAUAGUUCCUACUACCUCA,0.000301 ± 0.0059
4,GGAGACGAUACAUAACAACCUACUACCUCA,0.0034 ± 0.0038
5,GGAGAGGUUACUAUACAACCUACAACCUCA,0.00313 ± 0.0018
6,GGAGACCUAACUAUACAACCUACAACCACA,0.0026 ± 0.0076
7,GGAGAGGAUACUCUACAACCUACUACCUCA,0.00431 ± 0.0033
8,GGAGACCUUUCUAUACAACCUACAACCUCA,0.0025 ± 0.0028
9,GGAGACCAUACUAUACAACCUACUUGGUCA,0.00392 ± 0.0029
10,GGAGACCUAACUAUACAUCCUACUUCCUCA,0.00318 ± 0.004
11,GGAGACGAUACUAUACACCUACUACCUCA,0.0134 ± 0.0055
12,GGAGUGGAUACUAUACAACCUACUACCUA,0.249 ± 0.092
13,GGAGACCUAUCUAUACAACCUAGUACCACA,0.00205 ± 0.0043
14,GGAGUGCGAUACUAUACAACCUACUACCUCA,0.136 ± 0.044
15,GGAGACCUAUGUAUACAACCUACUACGUCA,0.00205 ± 0.0044
16,GGAGACCUAUGUAUACAACCUACCUACCUCA,0.000582 ± 0.011
17,GGAGACCAUACAAUAGAACCUACUACCUCA,0.00131 ± 0.0048
18,GGAGACCAUACAAUACAACCUACUUCCUCA,0.00307 ± 0.0036
19,GGAGAGAAUACUAUACAACCUACUACCUCA,0.0106 ± 0.0053
20,GGAGACGUUACUAUACAACCUACUUCCUCA,0.00144 ± 0.0025

# Not a retest: an excerpt of the list.
row,Sequence,pre-steady-state target cleavage rate
16,GGAGACCUAUGUAUACAACCUACCUACCUCA,0.000582 ± 0.011
17,GGAGACCAUACAAUAGAACCUACUACCUCA,0.00131 ± 0.0048

# Following part:

row,Sequence,pre-steady-state target cleavage rate
1,GGAGUGGAUUCUAUACAACCUACUAGCUCA,0.00173 ± 0.0029
2,GGAGACCUAACUUUACAACCUACUACGUCA,0.000877 ± 0.009
3,GGAGUGGAUACUAUACAACCUACAUCCUCA,0.00282 ± 0.0012
4,GGAGACCUAUCUAUCCAACCUACUACCUCA,0.00348 ± 0.0037
5,GGAGACCUAUCUAAACAACCUACUACGUCA,0.000917 ± 0.0048
6,GGAGACCUAUGUAUACAUCCUACUACCUCA,0.00183 ± 0.0039
7,GGAGUGGAAACUAUACAACCUACAACCUCA,0.00221 ± 0.0036
8,GGAGACCAUUCUAUACAACCAACUACCUCA,0.00335 ± 0.0039
9,GGAGACCAUAGUAUACAACCUACUACCUCA,0.022 ± 0.0084
10,GGAGACCUAUCUAUACAAGCUUCUACCUCA,0.00135 ± 0.0047
11,GGAGUGGAUACUUUUCAACCUACUACCUCA,0.00404 ± 0.0046
12,GGAGACCUAUGUAUACAAGCUACUACCUCA,0.00216 ± 0.0044
13,GGAGUGGUUACUAUACAAGCUACUACCUCA,0.00582 ± 0.0018
14,GGAGACCUAUGAUAUGUUGCUACUACGACA,0.00097 ± 0.0049
15,GGAGACCAUAGUAUACAACCUAGUACCUCA,0.00229 ± 0.0028
16,GGAGACCAUACUAUACAACCUACUACCUCA [g2:g23:cont:t1A],0.0141 ± 0.0046
17,GGAGAGGAUACUAUACAACGUACAACCUCA,0.00357 ± 0.0017
18,GGAGACCUAUGAUAUGUUCCUACUACCAGA,0.000155 ± 0.013
19,GGAGACCUAAGUAUACAUCCUACUACCUCA,0.00219 ± 0.0029
